# In paper PMC3742746, “A Novel TetR Family Transcriptional Regulator, SAV576, Negatively Controls Avermectin Biosynthesis in Streptomyces avermitilis”:
# The exact form of at least one protein or probe is not confirmed. Negatives hold for the conditions tested. At least one verdict rests on a figure or table, not on a statement of the authors. Tags and fusion partners may be left off the protein sequences shown.
# Biological target: T1, His6-SAV576 (TetR family regulator) (Streptomyces avermitilis ATCC31267) (UniProt Q82QD4)
# T1 sequence (looked up, limits assumed): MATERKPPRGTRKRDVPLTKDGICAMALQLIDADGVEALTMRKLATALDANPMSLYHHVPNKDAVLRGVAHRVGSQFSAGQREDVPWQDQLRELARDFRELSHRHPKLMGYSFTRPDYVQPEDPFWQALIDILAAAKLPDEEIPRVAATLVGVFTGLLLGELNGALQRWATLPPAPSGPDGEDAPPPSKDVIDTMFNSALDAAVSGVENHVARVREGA
# Assay: EMSA
# Conditions: EMSA: Roche DIG Gel Shift Kit binding buffer (composition not stated), 0.3 nM probe, 1 µg poly[d(I-C)] in 20 µl, 25°C 30 min, 5% PAGE 0.5x TBE, recombinant protein, protein details: His6 (pET-28a), label: 3' DIG
# [1] = probe letters rebuilt from the primers and the genome
Sequence,binding result [1],binding result
GGTATTCCATTCGGTGTTGCAGCACGCGACCCACTGCGCATCCCACTCGTGAATTGTGGACCGCCATCCGGGGCACGGATGTCTCCAGGAAGGAACTCCTTCACCCTCGCGAACACCACCTCAGAATCCCACGATCATCAGTTAATCATCAAAGTCAGCGACCTTGACACTACCCCGCCCACCAGGGCAAATTCATAACA (double strand) [probe 7],no binding,
TGAAGGCATACAGCGTATGGAAACGGGGCGCTGCCGTACCGGC (double strand) [probe 1a],,binds
GAAGGCATACAGCGTATGGAAACGGGGCGCTGCCGTACCGGCGCCCCGTCACACCGAATGGCGCCCTGCCCGCCTTTCCCCTTGGAGGAGCCAGCCAT (double strand) [probe 1],binds,
GAAACTCAATCGGCAGACCTGGGGTCGAGAAACAGGAACGTTTCGGCCCATCAGGGACGGCGTCGCTCACGCAGCGGGGTCGCATCAGGATCAGGCGCTGCCGAACGCTCTCCCGGCTGGAGGAGGCGAGGGGAGACCGGTCGCCGCCAGCCGGCGGCTCGACCGGGCCACCGGTGGGTGCGCCCCGGGGAGGACACCCACGATCCGCGACGGCGGCCGCGGCTACATCCCGGTGAGCAGCCAATCCCCCTGCCCGCCAGTACGCATCGCGGAGGT (double strand) [probe 3],no binding,
ATCATGGTCGGGAACCTCCGCAATCCGGGCCGGGCGGCCCAGCTGTCGTGGCGATCTACTCCAGGAAACGTAGACCTTTTTCTGCCACTTGTCCGAGCTATGCAGACACCCCGATCCCCTAAGAAATGAACACCCTTGGGAACGGCACAGCCCAGGGGTGGATAGGGGTATTCGCCGCCGCCGCGCCGTCATTAGCTTTGAAGAGTTGAAGACGTTCAAGACATTGATGCCCGGCCGTCAGCGGATTTCTCGCGCTCCTTTCATTCTTCGACGCTGCATTGCAGCTCTCATCATGTCCGCACGGCCGCCGAGCATTGCCTAGCGGTGA (double strand) [probe 8],no binding,
GGAGGACACCCACGATCCGCGACGGCGGCCGCGGCTACATCCCGGTGAGCAGCCAATCCCCCTGCCCGCCAGTACGCATCGCGGAGGTCGGGTCTGCACCCATGCGCGTCGGCGACTGACGGCAGCGCCGGAGAAGCAGGCGCGTGTGCCGCCTCGCGGCGGCGCCCGTACGTCTCCATGCCGCGCTCGATCAGGCCGGTATCAGTCCGCGAGAGCGGGCAAGGCGGGTTCGCCAGGGTCTCCTCGGCAGGGCATAT (double strand) [probe 4],no binding,
AGGACGGTGGCATCGTTTTCAGCCCCTCGTTCCTCCGGTTTCGCGGAAGCGGGCTGTGTGCTGGTGGGCGGCGTAACTGGCGACGGGCAGTCCCGAACTGGTGGCCTTGATGGCCGACGAGGTCGTCAAGGCATGCCTCGGCCAGGAAAAGGCTCAGGCGGGAAGCTGCGCTCGAGGGGTGCAGCAAGGCGCTCGAGCGGCGGCTTCAGCGCACTGCCGCCTGACGTGTGCGGGCGTAGGACCGGGCGAGGCGTGTCGACCGCTCCCACTCCCGGTGTGCTCGCCCGCGGCGGCGGATCGCAGATATGCCCTGCCGAGGAGACCCTGGCGAAC (double strand) [probe 5],no binding,
